Measurements reported in PubChem BioAssay AID1259425 (University of Nebraska Medical Center, 2018)
The deposit covers about 14,000 reagents; this is a part drawn at random. The record does not give: the time to read-out.

- Test: 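Compare each knockdown with KSR1 silencing using changes in marker transcripts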 (primary screen)
- Cells: HCT116 human colon cancer cells
- Reagent: siRNA pool against human genes, 50 nM siRNA
- Detection: 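After 50 nM siRNA pool, branched-DNA assay measures six marker transcripts per well, minus blank, normalised to the geometric mean of two housekeeping transcripts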
- Direction: BNIP3L mRNA: higher = more BNIP3L transcript after knockdown; NDRG1 mRNA: higher = more NDRG1 transcript after knockdown; BNIP3 mRNA: higher = more BNIP3 transcript after knockdown; ALDOC mRNA: higher = more ALDOC transcript after knockdown; ACSL5 mRNA: higher = more ACSL5 transcript after knockdown

Gene | BNIP3L mRNA, set 1 | NDRG1 mRNA, set 1 | BNIP3 mRNA, set 1 | ALDOC mRNA, set 1 | ACSL5 mRNA, set 1
EHMT1 (GeneID 79813) | 0.22 | 0.125 | 0.325 | 0.089 | 0.15
NOS1AP (GeneID 9722) | 0.0933 | 0.284 | 0.4 | 0.0465 | 0.25
MEX3B (GeneID 84206) | 0.202 | 0.11 | 0.204 | 0.0574 | 0.134
P4HA1 (GeneID 5033) | 0.0735 | 0.106 | 0.229 | 0.00917 | 0.13
ERI1 (GeneID 90459) | 0.0778 | 0.391 | 0.323 | 0.0357 | 0.276
PPP1CC (GeneID 5501) | 0.0856 | 0.129 | 0.261 | 0.0203 | 0.0654
CD83 (GeneID 9308) | 0.124 | 0.125 | 0.301 | 0.0273 | 0.166
PPP2R5B (GeneID 5526) | 0.0466 | 0.115 | 0.202 | 0.0153 | 0.129
JUND (GeneID 3727) | 0.157 | 0.224 | 0.475 | 0.0137 | 0.317
C17orf75 (GeneID 64149) | 0.0993 | 0.197 | 0.232 | 0.0229 | 0.142
ASCC1 (GeneID 51008) | 0.0977 | 0.163 | 0.493 | 0.0505 | 0.258
CKAP2 (GeneID 26586) | 0.137 | 0.252 | 0.34 | 0.0211 | 0.15
POLDIP3 (GeneID 84271) | 0.148 | 0.235 | 0.252 | 0.0695 | 0.447
NUDT15 (GeneID 55270) | 0.0905 | 0.134 | 0.266 | 0.0248 | 0.158
ZNF562 (GeneID 54811) | 0.117 | 0.191 | 0.272 | 0.0121 | 0.0992
MSH3 (GeneID 4437) | 0.117 | 0.146 | 0.306 | 0.024 | 0.114
ZBTB4 (GeneID 57659) | 0.13 | 0.307 | 0.223 | 0.0141 | 0.312
MATN2 (GeneID 4147) | 0.0779 | 0.306 | 0.304 | 0.0434 | 0.266
SHANK3 (GeneID 85358) | 0.0819 | 0.0427 | 0.186 | 0.0233 | 0.0891
CRK (GeneID 1398) | 0.0909 | 0.235 | 0.472 | 0.00947 | 0.128

Targets above whose gene name starts with Z or z:
Gene | BNIP3L mRNA, set 1 | NDRG1 mRNA, set 1 | BNIP3 mRNA, set 1 | ALDOC mRNA, set 1 | ACSL5 mRNA, set 1
ZNF562 (GeneID 54811) | 0.117 | 0.191 | 0.272 | 0.0121 | 0.0992
ZBTB4 (GeneID 57659) | 0.13 | 0.307 | 0.223 | 0.0141 | 0.312
